Where a protein sequence is shown, tags need not be part of it.
Test system: T1, TobR (Lrp/AsnC family regulator)
T1 sequence (looked up): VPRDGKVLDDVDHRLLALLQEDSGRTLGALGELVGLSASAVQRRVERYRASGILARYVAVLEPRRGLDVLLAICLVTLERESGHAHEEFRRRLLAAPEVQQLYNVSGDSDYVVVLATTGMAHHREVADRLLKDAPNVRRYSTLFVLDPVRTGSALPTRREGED
Assay: EMSA
Conditions: Tris-HCl pH 7.5 (printed as 10 mL), 5 mM MgCl2, 60 mM KCl, 10 mM DTT, 50 mM EDTA, 10% glycerol; 100 ng DNA in 20 uL, 30 C, 20 min; 6% native PAGE in ice-cold 0.5x TBE; recombinant protein; residues 1-163; protein details: N-terminal His6 (pET28a); probe letters rebuilt from the primers and the genome

Sequence: AGGCAGATCGCCAGCAGGACGTCGAGGCCGCGCCGGGGCTCCAGCACGGCCACGTACCGGGCGAGGATCCCGCTGGCGCGGTACCGCTCCACCCGGCGTTGGACCGCGCTCGCCGACAACCCCACCAGCTCGCCGAGGGCGCCGAGCGTGCGCCCGGAGTCCTCCTGCAACAGGGCGAGCAACCGGTGGTCGACGTCGTCGAGGACCTTCCCGTCACGAGGCACGCAACCATGTTGCGCGACGGCGGGCGAATTTTCAATCGCCGCCACCTGGGGAGCGGTTATCGTGTGCGTCGACGGGAGAGAAACCACCGGGTAACGCGGGGACGCGCTTTTTCGATGTCGACGGAACAGGGACCCGCGCCGTCGAAATCGCGACGAAAGCCGACGGGAATCGACCGCCGATACGTTCGCGCCGCACGGTAGGACCGACAGTGGAGGAAATCAGATGTCCTCGGCGCTCACGATTCCCCTGTACCACGTCCCTGAGGACGAGAGAATCCGGTTGTGGGAGCACT (double strand) [PtobO (tobR-tobO intergenic)]
- binding result: binds
